For assay [1], the target named is GFP::SNA-1 (C. elegans (endogenous in embryo extract)) (UniProt O45149). Kind of assay: condition: only extract pre-treated with RNase A and RNase T1; affinity purification with mass spectrometry; as a1, but the PE906 embryo extract was pre-treated with 200 units/ml RNase T1 and 5 units/ml RNase A for 1 h at 4°C before the immunoprecipitation.
Assay [2] has the same target. Briefly: affinity purification with mass spectrometry; GFP::SNA-1 precipitated from PE906 embryo extract with anti-GFP nanobody agarose beads (GFP-Trap) against control agarose beads, triplicates, 1 h at 4°C; label-free LC-MS/MS (MaxQuant, Perseus; FDR < 0.01, S0 2.5); extract not treated with RNase.
Assay [3] shares this target. The assay is described as above. This is another data set of the same source.
The target in assay [4] is SNA-3::GFP (C. elegans (endogenous in embryo extract)) (UniProt Q9GYR5). Briefly: affinity purification with mass spectrometry; SNA-3::GFP precipitated from PE975 embryo extract with anti-GFP nanobody agarose beads against control agarose beads, triplicates; label-free LC-MS/MS; extract not treated with RNase.
For assay [5] the target is unchanged. Briefly: condition: only extract pre-treated with RNase A/T1; affinity purification with mass spectrometry; as a3, but the PE975 embryo extract was pre-treated with RNase A/T1 before the immunoprecipitation.

The chains behind the UniProt entries cited, without tags or fusion partners. Residues count along the entry.
UniProt P34659: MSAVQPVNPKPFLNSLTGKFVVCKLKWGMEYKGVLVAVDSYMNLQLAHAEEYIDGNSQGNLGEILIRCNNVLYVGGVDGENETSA
UniProt O17921: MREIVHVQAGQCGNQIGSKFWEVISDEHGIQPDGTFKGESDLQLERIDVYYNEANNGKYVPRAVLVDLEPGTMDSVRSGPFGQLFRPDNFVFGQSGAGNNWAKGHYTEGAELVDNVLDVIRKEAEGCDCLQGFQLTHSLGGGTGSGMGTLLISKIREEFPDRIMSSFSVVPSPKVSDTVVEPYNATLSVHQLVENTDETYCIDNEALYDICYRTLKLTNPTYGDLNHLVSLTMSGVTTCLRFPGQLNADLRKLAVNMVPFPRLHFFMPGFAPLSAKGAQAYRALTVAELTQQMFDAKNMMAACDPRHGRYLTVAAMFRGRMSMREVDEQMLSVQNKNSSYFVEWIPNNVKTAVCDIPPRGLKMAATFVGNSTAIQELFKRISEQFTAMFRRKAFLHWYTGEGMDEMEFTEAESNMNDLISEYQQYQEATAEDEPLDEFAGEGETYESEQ
UniProt A0A0K3AUJ9: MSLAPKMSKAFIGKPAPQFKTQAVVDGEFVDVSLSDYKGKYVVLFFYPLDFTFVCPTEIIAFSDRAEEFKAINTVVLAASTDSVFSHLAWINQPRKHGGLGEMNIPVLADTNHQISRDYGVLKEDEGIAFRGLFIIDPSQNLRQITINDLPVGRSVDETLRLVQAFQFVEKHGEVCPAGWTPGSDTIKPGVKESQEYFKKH
UniProt P11141, residues 28-657: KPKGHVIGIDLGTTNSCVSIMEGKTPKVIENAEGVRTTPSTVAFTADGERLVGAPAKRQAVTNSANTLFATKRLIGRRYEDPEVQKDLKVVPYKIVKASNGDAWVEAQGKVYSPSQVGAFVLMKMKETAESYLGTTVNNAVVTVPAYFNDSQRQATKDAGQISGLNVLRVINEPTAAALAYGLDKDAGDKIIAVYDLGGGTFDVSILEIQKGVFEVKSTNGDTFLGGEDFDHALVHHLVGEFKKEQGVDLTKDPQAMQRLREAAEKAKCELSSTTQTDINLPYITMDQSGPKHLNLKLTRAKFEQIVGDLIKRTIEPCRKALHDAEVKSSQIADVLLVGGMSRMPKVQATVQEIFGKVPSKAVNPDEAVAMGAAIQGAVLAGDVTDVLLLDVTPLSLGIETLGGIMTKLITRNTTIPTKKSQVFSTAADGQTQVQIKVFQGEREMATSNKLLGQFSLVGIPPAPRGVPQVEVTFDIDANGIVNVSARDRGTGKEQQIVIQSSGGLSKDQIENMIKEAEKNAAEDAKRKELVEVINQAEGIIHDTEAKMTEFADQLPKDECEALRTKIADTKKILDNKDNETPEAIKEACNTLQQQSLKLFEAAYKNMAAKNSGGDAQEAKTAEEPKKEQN
UniProt P20163, residues 18-657: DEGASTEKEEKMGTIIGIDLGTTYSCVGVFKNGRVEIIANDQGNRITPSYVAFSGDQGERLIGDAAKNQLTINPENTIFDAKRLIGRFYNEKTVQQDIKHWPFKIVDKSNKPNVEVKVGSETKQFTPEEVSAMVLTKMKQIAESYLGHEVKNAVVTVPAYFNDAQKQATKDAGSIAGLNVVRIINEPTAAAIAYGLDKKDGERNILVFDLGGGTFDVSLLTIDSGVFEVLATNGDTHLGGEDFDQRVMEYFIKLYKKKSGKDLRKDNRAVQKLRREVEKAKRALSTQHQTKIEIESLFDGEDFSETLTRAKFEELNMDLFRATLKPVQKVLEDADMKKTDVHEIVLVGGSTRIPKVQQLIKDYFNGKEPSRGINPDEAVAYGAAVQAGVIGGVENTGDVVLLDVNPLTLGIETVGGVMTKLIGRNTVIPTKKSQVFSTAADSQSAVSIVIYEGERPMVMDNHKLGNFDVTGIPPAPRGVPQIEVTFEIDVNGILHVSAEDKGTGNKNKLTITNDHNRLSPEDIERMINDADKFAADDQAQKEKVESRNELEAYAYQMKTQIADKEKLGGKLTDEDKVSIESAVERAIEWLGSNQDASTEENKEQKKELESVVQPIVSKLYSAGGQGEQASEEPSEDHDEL
UniProt Q10013: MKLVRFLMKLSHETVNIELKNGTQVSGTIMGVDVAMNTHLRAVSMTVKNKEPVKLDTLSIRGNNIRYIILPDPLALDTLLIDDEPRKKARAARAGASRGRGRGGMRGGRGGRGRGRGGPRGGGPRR
UniProt Q18786: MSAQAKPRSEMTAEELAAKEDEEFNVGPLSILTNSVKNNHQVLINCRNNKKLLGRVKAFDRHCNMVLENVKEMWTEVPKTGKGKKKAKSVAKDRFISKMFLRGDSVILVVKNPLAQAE
UniProt P28548: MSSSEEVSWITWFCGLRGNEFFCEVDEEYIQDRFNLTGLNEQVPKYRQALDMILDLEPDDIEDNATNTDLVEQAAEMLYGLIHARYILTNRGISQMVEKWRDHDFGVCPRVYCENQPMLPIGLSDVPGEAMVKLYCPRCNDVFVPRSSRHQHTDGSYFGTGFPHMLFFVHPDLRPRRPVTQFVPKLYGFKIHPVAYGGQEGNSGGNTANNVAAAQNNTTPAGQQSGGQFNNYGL
UniProt P27420, residues 18-661: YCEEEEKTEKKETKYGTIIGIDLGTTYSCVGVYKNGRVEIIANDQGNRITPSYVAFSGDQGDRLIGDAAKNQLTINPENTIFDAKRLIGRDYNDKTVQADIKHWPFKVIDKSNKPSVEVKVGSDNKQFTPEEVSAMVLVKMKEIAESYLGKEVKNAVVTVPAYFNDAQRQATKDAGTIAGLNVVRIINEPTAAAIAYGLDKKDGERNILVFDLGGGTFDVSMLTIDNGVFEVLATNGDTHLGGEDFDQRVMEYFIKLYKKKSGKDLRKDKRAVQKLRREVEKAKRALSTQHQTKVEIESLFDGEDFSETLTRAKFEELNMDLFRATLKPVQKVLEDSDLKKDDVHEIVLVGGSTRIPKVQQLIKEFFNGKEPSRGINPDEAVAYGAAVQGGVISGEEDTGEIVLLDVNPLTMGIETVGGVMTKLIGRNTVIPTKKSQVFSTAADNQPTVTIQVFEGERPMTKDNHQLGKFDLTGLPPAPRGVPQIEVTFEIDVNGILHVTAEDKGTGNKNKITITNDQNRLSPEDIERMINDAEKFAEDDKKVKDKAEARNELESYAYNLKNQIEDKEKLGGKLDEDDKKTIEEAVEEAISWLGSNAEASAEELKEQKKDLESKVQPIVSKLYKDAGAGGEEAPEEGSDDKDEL

No constants are given. Whether binding was seen depends on the method and setting. Binding seen in cells or lysates may run through a third protein. Here binding means that the protein was enriched with, or labelled near, the bait; the list need not be complete. For part of these data: No binding means not detected with the bait.

As for SNR-5 (from UniProt P34659 1-85), the binding entry in assay [1] is listed as “no binding”; in assay [2], “binds”. Take TBB-1 (from UniProt O17921 1-449): the binding result in assay [1] is given as “no binding”; in assay [2], “binds”. For TBA-7 (from UniProt O18154) the same measures were “no binding” and “binds”. The matching figures for PRDX-2 (from UniProt A0A0K3AUJ9 1-201): “no binding” and “binds”. On to HSP-6 (from UniProt P11141 28-657), for which the binding entry in assay [1] is listed as “no binding”; in assay [2] it was “binds”. The matching figures for HSP-4 (from UniProt P20163 18-657): “no binding” and “binds”.

As to SNR-3 (from UniProt Q10013 1-126), the binding entry in assay [1] is on record as “no binding”; in assay [2] it was “binds”. The matching figures for SNR-4 (from UniProt Q18786 1-118): “no binding” and “binds”. The matching figures for TBB-2 (from UniProt P52275 1-450): “no binding” and “binds”. KIN-10 (from UniProt P28548 1-234): the binding entry in assay [1] is “no binding”; in assay [2], “binds”. For the molecule HSP-3 (from UniProt P27420 18-661), the binding entry was “no binding” in assay [1] and “binds” in assay [2].

B1: PRP-19 (protein, UniProt Q10051 1-492)
chain: MSFVCGISGELTEDPVVSQVSGHIFDRRLIVKFIAENGTDPISHGELSEDQLVSLKSGGTGSAPRNVSGTSIPSLLKMLQDEWDTVMLNSFSLRQQLQIARQELSHSLYQHDAACRVISRLSKELTAAREALSTLKPHTSAKVDDDVSIDESEDQQGLSEAILAKLEEKSKSLTAERKQRGKNLPEGLAKTEELAELKQTASHTGIHSTGTPGITALDIKGNLSLTGGIDKTVVLYDYEKEQVMQTFKGHNKKINAVVLHPDNITAISASADSHIRVWSATDSSSKAIIDVHQAPVTDISLNASGDYILSASDDSYWAFSDIRSGKSLCKVSVEPGSQIAVHSIEFHPDGLIFGTGAADAVVKIWDLKNQTVAAAFPGHTAAVRSIAFSENGYYLATGSEDGEVKLWDLRKLKNLKTFANEEKQPINSLSFDMTGTFLGIGGQKVQVLHVKSWSEVVSLSDHSGPVTGVRFGENARSLVTCSLDKSLRVFSF
Consider B1, for which the figures for the binding entry in assay [1] and in assay [3] were “no binding” and “binds”, respectively.

B2: SNR-6 (protein, UniProt Q9XTU6 1-90)
chain: MSTRKLNKVMVQPVNLIFRYLQNRTRVQIWLYEDVTHRLEGYIIGFDEFMNVVFDEAEEVNMKTKGRNKIGRILLKGDNITLIHAAQQEA
Regarding B2, the binding entry is “no binding” in assay [1] and “binds” in assay [3].

B3: MTR-4 (enzyme, UniProt Q23223 1-1026)
chain: MADLFDEFIEPGVKNEIMDVEEAPENPMEKLDSAKKRQAREDMTNLLANMHNDVGVGNFDEATSKRARVEEEEEVEEARMENIIVHTIRTDNENCTHEVAIPPNAEFAELRENSGTEPAKYYPFQLDAFQKQAILCIDNNQSVLVSAHTSAGKTVVATYAIAKCLREKQRVIYTSPIKALSNQKYRELEEEFKDVGLMTGDVTLNPDASCLVMTTEILRSMLYRGSEIMKEVGWVVYDEIHYMRDKERGVVWEETIILMSKNIKQAFLSATIPNARQFAQWVASIKQQPVNVVYTDYRPTPLQHWIYPVGGEGMYEVVNVKGEFREDKFRDAMSGLATAGDSAGSFNKRRTGGGTQGDSNVLKIIRSVASNDGLNCIVFSFSRKECESYAISLKDMDFNKDHEKGMVKSVYESAIAQLSPEDQKLPQILNILPLLRRGIGVHHSGLMPILKETIEILFGEGLVKVLFATETFSMGLNMPARTVVFTSARKFDGSDNRYITSGEYIQMAGRAGRRGKDDRGTVILMVDSAMSADDAKQIIKGATDPLNSQFRLTYNMVLNLMRVEGMAVSWIINNSFHQFQSYAKIPEIDKKCVQVERKIASFNFPWENEMRTLVDLQDQLEATRQRIIQIQREPKYIVGFLHAGRLFKVKSGDRDFKWGILNQFKKEQNPDDRNDQIYLCDMMIAINTEGRFDPTNPATLVPGFDLPKRRWIRVPMTIDRITAISAVRLKVPADIDKPDGQMRLDGMMAAATKRFGNQIPLLDPIQDMEIKTVEMKELIAREKSLEGRLETHSMTKRDNMKDLKKQFEQKQDAVKELNALKAERKSVQSTLHLEELNNRKRVLRRLGYLGNDDALVLKGSVACELSASDELILTEMLLKGIFNTLDVAQTAALLSCFVFQDKCAAPKLATELQTCLSELHEQARNVAKVSNECKMEVMEDKYVSSFNPGLMDVVYQWVNGATFSEIVKTTDVFEGSIIRTLRRLEEVLREMINAAKALANKELEQKFEDARKNLKRDIVFAASLYL
For the molecule B3, the binding entry in assay [4] is “binds”.

B4: TBH-1 (enzyme, UniProt Q9XTQ6 1-657)
chain: MEPTASQGIQYLRGGVEWILKLLNLHILNVKHENKPLLFRLIDLKVYIPSSVSTVRWSSGASSYVILGEYRKMRSAVALLFLLVAYCGGVVHAGEIVAELYHTNVTVKWHTDYERQLVDFSIWFGASTPDVLFLGFSDFGDTNNSDVLMYYNSKKEIKDAYTNRDFKITSDLQQDFQLLRKRKDHIVVRRKLTTCDSRDYAFLPGTTQFYIAASWGSTNLVDIRDKRWVVDKKFGKVIEGPTDQPNIEEEPAALEKDVKVVIVNSNSPDPIPNVETTYKCIIRKMPFDTVNNMYHVVRMEPYVTPGNEHLVHHMEIFMCRDEVEEWSGSCNDPKKPPKSKSCSHVIAAWAMGEGPIHYPKEAGLPIGGKGKNAYVMVEIHYNNPELHKGVIDSSGFQFFVTGQLRKYDAGIMELGLIYSDANSVPPNQKAWAMNGYCPSQCTKNLPEEGINIFASQLHAHLTGRKLFTSQYRSGVRIGDVNRDEHYSPHWQHLQQLRPVVKVMPGDTLVTTCVYDTRKRSKVTFGGYRIVDEMCVNYIYYYPASDVEVCKSAISNSTLRAYFSERHGMDGKRMQISDMYSNVKDWGNGVDEEFYNVLNVGNMNMNCLKSNGEPFEFESKDSRQSWENMARPTFVSGSFITTRDRFQCPAINDMINFE
Regarding B4, the binding entry in assay [1] is reported as “no binding”; in assay [3], “binds”.

B5: SNR-7 (protein, UniProt Q9N4G9 1-77)
chain: MSKTHPPELKKYMDKEMDLKLNGNRRVSGILRGFDPFMNMVIDEAVEYQKDGGSVNLGMTVIRGNSVVIMEPKERIS
For the molecule B5, the binding entry in assay [1] is recorded as “no binding”; in assay [3], “binds”.

B6: F54C8.4 (enzyme, UniProt P34442 1-359)
chain: MVRVCRVVPKDWSKFQPVGNVIPRTRFIVFKTPINSQLSTKIHKEQRFTTNDLFRQLSERGQYLGLVVDLSDTDRYYDKKDITGMCVQYEKVNCPGRGFIERDDCVESFHQVIQDYTDKCDDPDALIGVHCTNGINRCGYLICRFLIDRLGWSSHEAIDAFEQARGYSIEKGAYVMALHKAAKDKRDKQVDSDSDSSERQRKKKNKRKHREIVEHENIVLINTIIGELGSQAASVSGTDYQNSPNGVSVDPGQPQPHHWGFAIKRSKYAQLNQPVANGANTPPEPSEGTPQEEEEFEEDFEEIEEETETEPGKGQSVSSKRRARRNRMQKYMQVMQRGRFHEIQAIREEVALSHGSARD
Consider B6, for which the binding result in assay [5] is listed as “no binding”; in assay [4], “binds”.

B7: NCBP-1 (protein, UniProt O01763 1-798)
chain: MSRRRQFDDEDEVQMKRRRGAPLIEDVEKKLQGVIGKVGENTGSSIECNLDKLTAFLHDDLEKYRASIIDIIAGCAIYLPNRVTVYTTLVGLLNSKNFNFGGDVVEKLISEQQDLLSKQKYQEAQNLAIFLCDLGNSGVLTAQSIGEYLESFIAAAFEENMPQVRNDYYIQTVLRCLPWIGKELTEKAPEQMENIGEAIGKYLELRNKNHVALLQVWREGSTDQKQEDYLESLSAQIEALRNADWVENHIPRHYSGFETTLQDALQHNLPSFQSPEHTSDMIYPYPLVVFRLFQDADCSAFSSKPLPGDSSIDRFLFEGEIAWIIEKNQFNRKACARELLAFAEENPSVPIGFLIFETIFGQMLRLPHAPYPAIFHCSLVLELLKLKPDDYPQILVQTVECIYRRADSMQPVCIDRMVDWFSFHLSNFQYRYTWTDWKDCLNKDAFSGSQIFVREVIEKCRRFGSYEKIIAALPQDFVKIHPCSPEVRYLIDEEDTALVQRAETFTQMFQERQPAEAFLNELKSNDENDELPYNINEFGLFVMVMLKMASKTYSHNFSALFRYQTTLKTVCDASELYQEKLLETLYSCWKTNQQMLMILTDKLLKMQVIDCSAVVGWLFDEKMWQEHDRQWLFEVLNQALEKLTRQINVVEKDIKELTEKTENKIKEEDDEESDIKMDEDETKEEKFKQDLEDLENNKEKLERMVTFQKGLFNDFLIAFIEEIKNAATSNTSEMDGSGDTPGTQTPKFMWLRGRFCHVLLAHAETLLKHSSNIADEVFSEGTDPSIIECFNQFQSLRL
On to B7, for which the binding entry is recorded as “no binding” in assay [5], “no binding” in assay [3] and “binds” in assay [4].

B8: NCBP-2 (protein, UniProt Q93594 1-158)
chain: MVFDPRTLDNPKEISAYRDQRYQGTVRDQETALRTSCTLYVGNLSYYTKEDQVYELFGRAGDVRRVIMGLDRFKKTPCGFCFVEYYTREDAELALQNISNTRMDDRVIRADWDAGFIEGRQYGRGKHGGQVRDEYRKDYDPERGGYNRAIAQKGGDRQ
Take B8: in assay [4], the binding entry is on record as “binds weakly”.

B9: SNR-1 (protein, UniProt Q17348 1-136)
chain: MTSVGVPIKILHEAEGHMVTLETVTGEVYRGKLSEAEDNMNCQLAETVVTFRDGRSHQLDNVFIRGNKIRFMILPDMLKNAPMFKNIGRAQKGAIGMGLGGLDQRGRGRGTAFRRPMGRGGPRGMSRPGGAPTFRG
For B9, the results for the binding entry in assay [1] and in assay [3] were “no binding” and “binds”, respectively.

These data come from article PMC9303266.
